This is one part of the list. These are further read-outs of the screen, such as a control signal, another cell line or another target. No call is given for them. The list favours compounds with an active or inconclusive main result. The note in brackets gives the kind of curve behind each potency; many fits are weak.
Assay: qHTS Assay to Find Inhibitors of Chronic Active B-Cell Receptor Signaling
Conditions: ABC-DLBCL IkBa-CBG/CBR reporter, luminescence ratio (green luciferase fused to IkBa over red control in TMD8 lymphoma cells), 4 h
Summary of the method: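 Doxycycline induced both beetle luciferases in TMD8 lymphoma cells; IKK-driven degradation limits the IkappaBalpha-fused green signal, while red luminescence normalises for cell number and nonspecific effects. Compounds tested up to 46 uM, 4 hrs.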

[1] = measured here: CBR red luminescence, cell number
[2] = measured here: IkBa-CBG green luminescence

Structure (SMILES) | AC50 [1] | AC50 [2]
CCCN1CCN(CCCNC(=O)c2cc3c(s2)-c2ccccc2OC3)CC1 | 22.4 µM [falling, single point] | 
COc1ccc2nc(NC(=O)CN(C)S(=O)(=O)c3cccs3)sc2c1 | 10.3 µM [falling, partial curve] | 
COc1ccc(NC(=O)Nc2cc(F)ccc2C)cc1 | 14.1 µM [falling, single point] | 
CC(C)C1Nc2ccc(C(=O)O)cc2C2C=CCC21 (configuration not stated) | 35.5 µM [falling, single point] | 
c1ccc(Nc2cccc(Nc3ccccc3)c2)cc1 | 0.326 µM [rising, full curve, poor fit] | 
CCC(C)Sc1ccc([C@@H]2[C@H]3C(=O)N(CC)C(=O)[C@H]3[C@]3(C(=O)OC)CCCCN23)cc1 (some centres not stated) | 6.51 µM [falling, partial curve, poor fit] | 
CCCNc1ncnc2c1c(-c1ccccc1)cn2-c1ccccc1 | 12.6 µM [rising, single point] | 
O=C(OCC1O[C@@H](OC(=O)c2cc(O)c(O)c(O)c2)[C@@H](OC(=O)c2cc(O)c(O)c(O)c2)[C@@H](OC(=O)c2cc(O)c(O)c(O)c2)[C@@H]1OC(=O)c1cc(O)c(O)c(O)c1)c1cc(O)c(O)c(O)c1 (some centres not stated) | 29.1 µM [rising, single point] | 20.6 µM [falling, partial curve, poor fit]
C=C(Cl)COc1ccc2c(CCC)cc(=O)oc2c1 | 10.3 µM [rising, partial curve, poor fit] | 
COC(=O)C1=C(CCc2ccccc2)NC(=O)NC1c1ccc(Br)cc1 (configuration not stated) | 22.4 µM [falling, single point] | 12.6 µM [rising, partial curve, poor fit]
CCCCCCN1CC(O)=C(c2ccccc2)C1=N | 5.17 µM [rising, partial curve, poor fit] | 
CC1CCN(C(=O)c2ccc(NC(=O)c3cccs3)cc2)CC1 | 0.794 µM [rising, full curve, poor fit] | 
CC(NC(=O)c1noc2c1CCCCC2)c1ccccc1 (configuration not stated) | 0.651 µM [rising, partial curve] | 
Cc1ccc(-n2c(-c3ccc(Cl)cc3)n[nH]c2=S)c(C)c1 | 15.8 µM [rising, single point] | 
CC1CCN(C(NC(=O)c2ccco2)C(=O)c2ccccc2)CC1 (configuration not stated) | 1.12 µM [rising, partial curve, poor fit] | 
COc1ccccc1NC(=S)NC(C)=O | 6.31 µM [falling, partial curve] | 
C[C@]12c3[nH]c4ccc(Cl)cc4c3CCN1C(=O)[C@@H](CC(=O)NCCc1ccccn1)C[C@@H]2C(=O)N1CCCCC1 | 0.326 µM [rising, full curve, poor fit] | 
Cc1ccc(NC(=O)CCCCCC2NC(=O)NC2C)cc1 (configuration not stated) | 9.2 µM [rising, partial curve, poor fit] | 
Cc1ccc(S(=O)(=O)N(C(=O)c2ccncc2)c2ccc(OC(=O)c3ccncc3)c3ccccc23)cc1 | 16.4 µM [falling, partial curve] | 

Structure (SMILES) | AC50 [1] | AC50 [2]
O=C(NC(Cc1ccccc1)C(=O)NCCc1ccccn1)c1ccccc1 (configuration not stated) | 3.98 µM [rising, full curve, poor fit] | 
COc1ccc(S(=O)(=O)N(CCC#N)Cc2ccco2)cc1OC | 1.58 µM [rising, partial curve, poor fit] | 
O=C(CN1CCN(Cc2ccc3c(c2)OCO3)CC1)Nc1ccc(F)cc1 | 23.1 µM [falling, partial curve] | 
COc1cc(-c2cc(N3C(=O)Nc4ccccc4N3O)n[nH]2)cc(OC)c1OC | 1.84 µM [rising, partial curve, poor fit] | 2.59 µM [falling, partial curve, poor fit]
O=C(COc1ccc(Cl)cc1)NCc1nnc(SCC(=O)NCC2CCCO2)o1 (configuration not stated) | 3.16 µM [falling, single point] | 
COc1cccc(N=Cc2c(O)n(-c3cccc(C)n3)c(=O)c3ccccc23)c1 | 3.66 µM [falling, full curve, poor fit] | 
O=C(Nc1cccc(-c2cn3cccnc3n2)c1)c1ccco1 | 12.6 µM [falling, single point] | 
CCCc1ccc(-c2cc(N)n[nH]2)cc1 | 3.66 µM [rising, partial curve, poor fit] | 
CC(CC(=O)Nc1cc(S(=O)(=O)N2CCOCC2)ccc1OCC(F)(F)F)c1ccccc1 (configuration not stated) | 29.1 µM [rising, partial curve, poor fit] | 
Cc1onc(-c2ccccc2Cl)c1C(=O)Nc1ccc(S(=O)(=O)Nc2nccs2)cc1 | 7.94 µM [falling, partial curve, poor fit] | 
COc1cc(C(C(=O)NC2CCCCC2)N(CCN2CCOCC2)C(=O)C2COc3ccccc3O2)cc(OC)c1OC (configuration not stated) | 35.5 µM [rising, single point] | 
C/C(=N\NC(=O)c1n[nH]c2c1CCC2)c1cccs1 | 12.6 µM [falling, partial curve] | 35.5 µM [falling, single point]
Cc1ccc(-c2nnn(CC(=O)O)n2)cc1 | 0.651 µM [falling, single point] | 
CCN1C(=O)S/C(=C/c2cn(C)c3ccccc23)C1=O | 1.16 µM [rising, partial curve, poor fit] | 
O/N=C/c1cn(-c2ccccc2)nc1-c1ccc2c(c1)OCCO2 | 2.51 µM [rising, partial curve, poor fit] | 
CCOc1ccc(OCc2ccc(C(=O)NN)o2)cc1 | 5.62 µM [falling, full curve] | 
CC(=O)c1cc2c(cc1NC(=O)CCC1CCCC1)OCO2 | 20.6 µM [rising, partial curve, poor fit] | 
Cn1c(SCC(=O)c2ccc(F)cc2)nnc1-c1ccccc1N | 12.6 µM [falling, partial curve] | 
O=C(Nc1ccccc1)C(=O)Nc1ccccn1 | 0.398 µM [falling, full curve] | 

Some of the entries so far, comma-delimited.
Structure (SMILES),AC50 [1],AC50 [2]
CC(=O)c1cc2c(cc1NC(=O)CCC1CCCC1)OCO2,"20.6 µM [rising, partial curve, poor fit]",
Cn1c(SCC(=O)c2ccc(F)cc2)nnc1-c1ccccc1N,"12.6 µM [falling, partial curve]",

Source: PubChem BioAssay AID493014 (National Center for Advancing Translational Sciences (NCATS), 2011)
